No constants are given. Whether binding was seen depends on the method and setting. In cells and extracts the contact can be indirect. A yes stands for co-enrichment or nearness to the bait. Other partners may have been found.

Sequences of proteins named here, by UniProt entry; tags and fusion partners are left off.
UniProt O95863: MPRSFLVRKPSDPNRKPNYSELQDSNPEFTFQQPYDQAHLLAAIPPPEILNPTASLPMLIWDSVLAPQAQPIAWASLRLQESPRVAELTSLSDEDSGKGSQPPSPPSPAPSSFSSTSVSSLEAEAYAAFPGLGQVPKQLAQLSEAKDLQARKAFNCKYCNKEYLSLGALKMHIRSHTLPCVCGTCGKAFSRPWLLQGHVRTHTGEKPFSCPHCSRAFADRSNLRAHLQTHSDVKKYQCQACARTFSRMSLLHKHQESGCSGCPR
UniProt Q13620: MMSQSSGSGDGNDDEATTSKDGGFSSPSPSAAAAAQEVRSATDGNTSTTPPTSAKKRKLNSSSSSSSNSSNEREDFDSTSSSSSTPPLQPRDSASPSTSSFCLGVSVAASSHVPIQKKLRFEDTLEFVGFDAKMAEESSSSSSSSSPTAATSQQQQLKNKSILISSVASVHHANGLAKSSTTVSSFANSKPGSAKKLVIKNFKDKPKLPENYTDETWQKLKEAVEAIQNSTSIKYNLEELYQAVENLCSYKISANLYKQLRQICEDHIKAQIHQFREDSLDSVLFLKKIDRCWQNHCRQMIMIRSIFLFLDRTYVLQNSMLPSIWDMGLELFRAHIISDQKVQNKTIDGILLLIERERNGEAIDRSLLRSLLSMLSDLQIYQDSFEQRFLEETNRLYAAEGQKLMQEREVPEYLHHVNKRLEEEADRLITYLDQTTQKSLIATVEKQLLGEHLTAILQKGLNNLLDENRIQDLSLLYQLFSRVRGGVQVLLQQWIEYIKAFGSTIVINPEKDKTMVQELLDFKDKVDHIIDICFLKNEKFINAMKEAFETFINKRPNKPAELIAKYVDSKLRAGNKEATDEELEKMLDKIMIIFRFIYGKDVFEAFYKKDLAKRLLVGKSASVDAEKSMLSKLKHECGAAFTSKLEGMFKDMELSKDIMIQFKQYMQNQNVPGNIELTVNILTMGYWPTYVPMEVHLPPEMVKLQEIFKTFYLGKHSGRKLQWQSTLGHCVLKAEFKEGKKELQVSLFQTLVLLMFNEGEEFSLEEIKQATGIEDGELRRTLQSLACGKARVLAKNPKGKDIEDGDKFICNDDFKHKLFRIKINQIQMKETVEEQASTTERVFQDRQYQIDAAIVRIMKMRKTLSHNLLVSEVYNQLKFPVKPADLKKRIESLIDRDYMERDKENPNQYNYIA
UniProt Q16531: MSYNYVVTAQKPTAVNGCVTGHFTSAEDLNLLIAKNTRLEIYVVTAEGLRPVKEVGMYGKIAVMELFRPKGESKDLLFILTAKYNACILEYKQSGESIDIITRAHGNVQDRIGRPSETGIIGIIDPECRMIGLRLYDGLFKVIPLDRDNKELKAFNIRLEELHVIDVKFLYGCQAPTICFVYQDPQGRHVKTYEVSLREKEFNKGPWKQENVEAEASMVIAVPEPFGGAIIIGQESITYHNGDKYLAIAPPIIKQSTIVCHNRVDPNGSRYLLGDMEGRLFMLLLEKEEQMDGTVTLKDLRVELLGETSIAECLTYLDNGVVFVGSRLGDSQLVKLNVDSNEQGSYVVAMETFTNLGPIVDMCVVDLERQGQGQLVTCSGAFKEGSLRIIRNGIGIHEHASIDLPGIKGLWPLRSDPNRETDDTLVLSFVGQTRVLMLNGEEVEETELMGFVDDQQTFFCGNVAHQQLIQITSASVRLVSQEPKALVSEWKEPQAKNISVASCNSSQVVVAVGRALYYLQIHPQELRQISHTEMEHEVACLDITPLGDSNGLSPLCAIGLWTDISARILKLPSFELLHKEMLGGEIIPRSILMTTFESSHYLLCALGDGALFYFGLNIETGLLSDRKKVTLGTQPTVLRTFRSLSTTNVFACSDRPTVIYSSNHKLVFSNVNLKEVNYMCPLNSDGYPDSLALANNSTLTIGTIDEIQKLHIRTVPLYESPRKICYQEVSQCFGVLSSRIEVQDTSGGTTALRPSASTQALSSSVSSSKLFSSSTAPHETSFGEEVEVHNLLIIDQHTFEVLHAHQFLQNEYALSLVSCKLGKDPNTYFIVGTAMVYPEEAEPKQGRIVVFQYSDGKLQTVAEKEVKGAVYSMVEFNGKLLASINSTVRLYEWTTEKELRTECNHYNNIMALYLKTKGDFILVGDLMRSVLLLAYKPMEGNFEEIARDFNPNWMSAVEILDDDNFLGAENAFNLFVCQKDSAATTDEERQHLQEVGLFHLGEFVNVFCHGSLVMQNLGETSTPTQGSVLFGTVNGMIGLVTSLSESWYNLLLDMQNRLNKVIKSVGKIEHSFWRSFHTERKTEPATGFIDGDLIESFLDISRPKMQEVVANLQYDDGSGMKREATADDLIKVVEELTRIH
UniProt Q13547: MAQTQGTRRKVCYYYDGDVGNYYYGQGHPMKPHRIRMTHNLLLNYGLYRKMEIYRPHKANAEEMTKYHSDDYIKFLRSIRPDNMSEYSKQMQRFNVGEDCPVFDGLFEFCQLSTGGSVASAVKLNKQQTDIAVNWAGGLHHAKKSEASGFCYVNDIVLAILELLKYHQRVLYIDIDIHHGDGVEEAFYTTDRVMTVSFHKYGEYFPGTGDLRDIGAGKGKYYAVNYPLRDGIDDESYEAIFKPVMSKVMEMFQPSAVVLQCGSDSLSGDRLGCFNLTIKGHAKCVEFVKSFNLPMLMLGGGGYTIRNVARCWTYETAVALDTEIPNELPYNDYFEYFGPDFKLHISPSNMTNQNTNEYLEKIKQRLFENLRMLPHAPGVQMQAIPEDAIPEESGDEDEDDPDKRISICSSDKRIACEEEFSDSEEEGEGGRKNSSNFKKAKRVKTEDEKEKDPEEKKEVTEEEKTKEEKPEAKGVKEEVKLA
UniProt Q92769: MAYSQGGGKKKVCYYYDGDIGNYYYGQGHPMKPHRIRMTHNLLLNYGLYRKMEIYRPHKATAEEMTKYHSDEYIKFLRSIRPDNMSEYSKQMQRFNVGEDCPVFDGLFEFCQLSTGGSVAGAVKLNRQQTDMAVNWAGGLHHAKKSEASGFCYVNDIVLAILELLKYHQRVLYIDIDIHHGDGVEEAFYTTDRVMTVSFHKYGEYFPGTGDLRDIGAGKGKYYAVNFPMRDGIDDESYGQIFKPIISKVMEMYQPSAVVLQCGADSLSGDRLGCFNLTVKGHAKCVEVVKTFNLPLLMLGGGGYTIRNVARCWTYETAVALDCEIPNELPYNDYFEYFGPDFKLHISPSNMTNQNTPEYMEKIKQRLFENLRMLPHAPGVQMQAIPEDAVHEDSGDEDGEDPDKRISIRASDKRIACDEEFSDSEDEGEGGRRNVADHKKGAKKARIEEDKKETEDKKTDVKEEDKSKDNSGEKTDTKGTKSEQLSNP
UniProt O15379: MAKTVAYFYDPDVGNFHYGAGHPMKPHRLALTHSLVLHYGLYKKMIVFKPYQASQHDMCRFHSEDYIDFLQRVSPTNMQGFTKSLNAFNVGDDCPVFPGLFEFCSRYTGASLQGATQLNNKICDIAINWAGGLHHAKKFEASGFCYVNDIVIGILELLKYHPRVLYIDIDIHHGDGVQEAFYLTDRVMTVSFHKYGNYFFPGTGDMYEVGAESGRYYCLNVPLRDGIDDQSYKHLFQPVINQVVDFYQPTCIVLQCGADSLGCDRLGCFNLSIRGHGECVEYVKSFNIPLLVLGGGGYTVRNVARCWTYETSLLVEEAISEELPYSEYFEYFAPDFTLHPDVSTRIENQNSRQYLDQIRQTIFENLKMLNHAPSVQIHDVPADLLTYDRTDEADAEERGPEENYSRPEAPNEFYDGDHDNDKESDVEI
UniProt Q09028: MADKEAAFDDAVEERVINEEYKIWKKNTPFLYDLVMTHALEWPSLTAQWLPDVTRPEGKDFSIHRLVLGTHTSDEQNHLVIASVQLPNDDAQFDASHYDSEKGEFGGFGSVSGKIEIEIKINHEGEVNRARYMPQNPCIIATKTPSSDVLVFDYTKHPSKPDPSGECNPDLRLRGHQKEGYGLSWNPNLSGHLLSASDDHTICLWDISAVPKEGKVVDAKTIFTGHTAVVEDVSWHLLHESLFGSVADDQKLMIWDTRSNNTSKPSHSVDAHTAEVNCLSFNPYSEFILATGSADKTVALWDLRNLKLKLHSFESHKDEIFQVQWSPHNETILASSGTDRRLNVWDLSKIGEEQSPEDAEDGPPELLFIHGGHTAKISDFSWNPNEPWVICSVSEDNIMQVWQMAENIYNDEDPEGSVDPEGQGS

Experiment [1] addresses FLAG-Snail (UniProt O95863). Put plainly: affinity purification with mass spectrometry; immunoaffinity purification of Snail- or ZEB2-associated proteins from MDA-MB-231 cells; silver stain and mass spectrometry; column-bound proteins western blotted.
Experiment [2] addresses FLAG-CUL4B (UniProt Q13620). The experiment is described as follows: affinity purification with mass spectrometry; whole-cell extracts of FLAG-CUL4B-expressing MCF-7 cells on anti-FLAG M2 affinity columns, eluted with FLAG peptide; SDS-PAGE, silver stain, LC-MS/MS; eluates also western blotted. For orientation: In western blotting, separated proteins are transferred to a membrane and probed.

Take “CUL4B (endogenous) (from UniProt Q13620 1-913)”: in experiment [1], the binding entry is reported as “binds”.
On to “DDB1 (endogenous) (from UniProt Q16531 1-1140)”, for which the binding result in experiment [2] and in experiment [1] was “binds” in each case.
For “HDAC1 (endogenous) (from UniProt Q13547 1-482) (enzyme)”, the binding result in experiment [2] and in experiment [1] was “binds” in each case.
Turning to “HDAC2 (endogenous) (from UniProt Q92769 1-488) (enzyme)”, the binding result in experiment [2] and in experiment [1] was “binds” throughout.
As to “HDAC3 (endogenous) (from UniProt O15379 1-428) (enzyme)”, the binding result in experiment [2] is reported as “binds”.
For “RbAp48 (endogenous) (from UniProt Q09028 1-425)”, the binding entry in experiment [2] and in experiment [1] was “binds” throughout.

B1: SAP30 (endogenous) (protein, UniProt O75446 1-220)
chain: MNGFTPDEMSRGGDAAAAVAAVVAAAAAAASAGNGTGAGTGAEVPGAGAVSAAGPPGAAGPGPGQLCCLREDGERCGRAAGNASFSKRIQKSISQKKVKIELDKSARHLYICDYHKNLIQSVRNRRKRKGSDDDGGDSPVQDIDTPEVDLYQLQVNTLRRYKRHFKLPTRPGLNKAQLVEIVGCHFRSIPVNEKDTLTYFIYSVKNDKNKSDLKVDSGVH
For the molecule B1, the binding result in experiment [2] is reported as “binds”.

The record behind these values is PMC8132058.
